In PubChem BioAssay AID330 (DTP/NCI, 2004):
The list shows only some results of the screen, not a fair sample: it is rich in T/C values a quarter to a half above the control, in often repeated tests (any T/C) and in doses without a T/C. Other doses and runs of a compound stand elsewhere. T/C: endpoint of the treated group in % of that of the vehicle group. Some entries give survivors of the animals treated and no T/C: the source files T/C as zero there, which appears to mark a toxic dose or a test without result, not a measured value. Some survivor counts are full or nearly so, which does not show that the dose was tolerated: survival well below the control is almost never listed, so the zero probably covers shortened survival too. Counts of survivors are from the toxicity check (mostly the fifth day) where no day follows; animals may have died later. Schedule codes are those of the source, taken here to give the interval after Q, in days (D) or hours (H), and the number of doses after X. Some doses were run more than once; their values stand side by side, smallest first. Additions like (4×) count equal records among those shown. Where survival is the endpoint, this PubChem deposit counts one and a half times the control or more as active, and values a quarter to a half above the control carry no call in these data; other NCI protocols may use other cut-offs. Some T/C values carry the count of animals alive at the toxicity check (mostly the fifth day); where none is given, no animal had died by that day.

Tested on: P388 leukemia ip, CD2F1 mice, survival T/C
Test: NCI In Vivo Anticancer Drug Screen. Data for tumor model P388 Leukemia (intraperitoneal) in CD2F1 (CDF1) mice
Details: T/C endpoint: median survival time, higher T/C = longer survival
[1] = dose: 50.0 mg/kg/injection, schedule: Q01DX005 (ip), vehicle: Klucel (hydroxypropylcellulose) (HPC)
[2] = dose: 100.0 mg/kg/injection, schedule: Q01DX005 (ip), vehicle: Klucel (hydroxypropylcellulose) (HPC)
[3] = dose: 200.0 mg/kg/injection, schedule: Q01DX005 (ip), vehicle: Klucel (hydroxypropylcellulose) (HPC)
[4] = dose: 100.0 mg/kg/injection, schedule: Q01DX009 (ip), vehicle: saline
[5] = dose: 50.0 mg/kg/injection, schedule: Q01DX009 (ip), vehicle: saline with Tween-80
[6] = dose: 200.0 mg/kg/injection, schedule: Q01DX009 (ip), vehicle: saline with Tween-80
[7] = dose: 400.0 mg/kg/injection, schedule: Q01DX009 (ip), vehicle: saline
[8] = dose: 12.5 mg/kg/injection, schedule: Q01DX009 (ip), vehicle: saline with Tween-80
[9] = dose: 25.0 mg/kg/injection, schedule: Q01DX009 (ip), vehicle: saline with Tween-80
[10] = dose: 100.0 mg/kg/injection, schedule: Q01DX009 (ip), vehicle: saline with Tween-80
[11] = dose: 240.0 mg/kg/injection, schedule: Q01DX005 (ip), vehicle: saline with Tween-80
[12] = dose: 100.0 mg/kg/injection, schedule: Q01DX005 (ip), vehicle: saline with Tween-80
[13] = dose: 200.0 mg/kg/injection, schedule: Q01DX005 (ip), vehicle: saline with Tween-80
[14] = dose: 50.0 mg/kg/injection, schedule: Q01DX005 (ip), vehicle: saline with Tween-80
[15] = dose: 60.0 mg/kg/injection, schedule: Q01DX005 (ip), vehicle: Klucel (hydroxypropylcellulose) (HPC)

COc1cc2c(cc1OC)[C@@H]1C(=O)c3ccc4c(c3O[C@@H]1CO2)C[C@H](C(C)C)O4
T/C (dose: 25.0 mg/kg/injection, schedule: Q01DX005 (ip), vehicle: Klucel (hydroxypropylcellulose) (HPC)): 127 and 137 % of control | T/C [1]: 126 [4 of 6 alive] and 130 % of control [5 of 6 alive] | survivor count [1]: 0 of 6 | survivor count [2]: 0 of 6 (2×) and 6 of 6 | survivor count [3]: 0 of 6 (2×)

Cc1cc(N=Nc2ccc(N=Nc3ccc(S(=O)(=O)O)cc3)cc2)cc(C(=O)O)c1O
survivor count [4]: 6 of 6

O=S(=O)(O)c1ccccc1N=Nc1ccc(N(CCCl)CCCl)cc1
T/C (dose: 15.0 mg/kg/injection, schedule: Q01DX009 (ip), vehicle: saline with Tween-80): 130 % of control | T/C (dose: 30.0 mg/kg/injection, schedule: Q01DX009 (ip), vehicle: saline with Tween-80): 138 % of control | T/C [5]: 137 % of control | T/C (dose: 60.0 mg/kg/injection, schedule: Q01DX009 (ip), vehicle: saline with Tween-80): 142 % of control | survivor count [6]: 5 of 6

CCOP(=O)(OCC)C1CCCN2CCc3c([nH]c4ccccc34)C12 (centres undefined)
survivor count [4]: 5 of 6

O=NN(CCCl)C(=O)NC1CC2CCC1C2 (centres undefined)
survivor count (dose: 100.0 mg/kg/injection, schedule: Q04DX003 (ip), vehicle: saline with Tween-80): 6 of 6

CCN(CCCN(C)C)c1ccc(/C=C/c2ccnc3ccccc23)cc1
survivor count (dose: 200.0 mg/kg/injection, schedule: Q01DX009 (ip), vehicle: saline): 0 of 6 | survivor count [7]: 0 of 6

CN(C)CCCO[Si](C)(c1ccccc1)c1ccc(F)cc1 (centres undefined)
survivor count [6]: 0 of 6

CCN(CC)CC(=O)c1ccc(O)c(O)c1
survivor count (dose: 600.0 mg/kg/injection, schedule: Q01DX009 (ip), vehicle: saline with Tween-80): 1 of 6

CCOC(=O)c1ccc(NC(=O)Nc2ccc(NC(C)=O)cc2)cc1
survivor count (dose: 30.0 mg/kg/injection, schedule: Q01DX005 (ip), vehicle: Klucel (hydroxypropylcellulose) (HPC)): 6 of 6 | survivor count (dose: 120.0 mg/kg/injection, schedule: Q01DX005 (ip), vehicle: Klucel (hydroxypropylcellulose) (HPC)): 6 of 6

O=C1CNC(=O)N1CN1CCOCC1
T/C [2]: 126 % of control | T/C [3]: 128 and 129 % of control

CC(=O)c1c(N)n(C)c(=O)n(C)c1=O
survivor count [8]: 2 of 6 | survivor count [9]: 0 of 6 | survivor count [5]: 0 of 6 | survivor count [10]: 3 of 6 | survivor count [6]: 2 of 6

CCOC(=O)CC1CC2c3cc(OC)c(OC)cc3CCN2CC1CC (centres undefined)
survivor count (dose: 100.0 mg/kg/injection, schedule: Q01DX009 (ip), vehicle: Klucel (hydroxypropylcellulose) (HPC)): 5 of 6 | survivor count (dose: 200.0 mg/kg/injection, schedule: Q01DX009 (ip), vehicle: Klucel (hydroxypropylcellulose) (HPC)): 2 of 6

CC(=O)NS(=O)(=O)c1ccc(N=NC2=C(O)C(c3ccccc3)N(c3ccccc3)C2=O)cc1 (centres undefined)
survivor count [11]: 2 of 6

CC(C)(C)B1N(c2ccccc2)N=NN1C(C)(C)C
survivor count (dose: 60.0 mg/kg/injection, schedule: Q01DX005 (ip), vehicle: saline): 5 of 6

CN(C)Cc1ncccc1O
survivor count [7]: 3 of 6 | survivor count (dose: 600.0 mg/kg/injection, schedule: Q01DX009 (ip), vehicle: saline): 0 of 6

CN(C)CCC(=O)C1CC1
survivor count [12]: 0 of 5 | survivor count [13]: 0 of 5

c1ccc2c3c(c4c(c2c1)CN(C1CCCCC1)CO4)OCN(C1CCCCC1)C3
T/C (dose: 25.0 mg/kg/injection, schedule: Q01DX005 (ip), vehicle: saline with Tween-80): 131 and 132 % of control | survivor count [14]: 6 of 6 | survivor count [12]: 6 of 6 | survivor count [13]: 0 of 6

C=C[C@@]1(C)CC(=O)[C@]2(O)[C@@]3(C)[C@@H](O)CCC(C)(C)[C@@H]3[C@H](O)[C@@H](OC(C)=O)[C@@]2(C)O1
survivor count (dose: 25.0 mg/kg/injection, schedule: Q01DX005 (ip), vehicle: saline + Tween-80 + alcohol): 0 of 6 | survivor count (dose: 50.0 mg/kg/injection, schedule: Q01DX005 (ip), vehicle: saline + Tween-80 + alcohol): 0 of 6

COc1c2c(c(OC)c3c(OC)c4ccccc4c(OC)c13)CC(=O)CC2
survivor count (dose: 12.5 mg/kg/injection, schedule: Q01DX009 (ip), vehicle: other): 5 of 5 | survivor count (dose: 25.0 mg/kg/injection, schedule: Q01DX009 (ip), vehicle: other): 5 of 5 | survivor count (dose: 50.0 mg/kg/injection, schedule: Q01DX009 (ip), vehicle: other): 5 of 5 | survivor count (dose: 100.0 mg/kg/injection, schedule: Q01DX009 (ip), vehicle: other): 5 of 5 | survivor count (dose: 200.0 mg/kg/injection, schedule: Q01DX009 (ip), vehicle: other): 5 of 5

COc1cc2c[n+](C)c3c(c2cc1OC)Cc1cc2c(cc1-3)OCO2
T/C (dose: 12.5 mg/kg/injection, schedule: Q01DX005 (ip), vehicle: saline with Tween-80): 134 % of control | T/C [14]: 149 % of control | survivor count (dose: 100.0 mg/kg/injection, schedule: Q01DX005 (ip), vehicle: saline): 5 of 6 | survivor count (dose: 200.0 mg/kg/injection, schedule: Q01DX005 (ip), vehicle: saline): 0 of 6

CC1(C)OCC(C2OC(C)(C)OC2C2OC(O)C=CC2=O)O1 (centres undefined)
survivor count (dose: 12.5 mg/kg/injection, schedule: Q01DX009 (ip), vehicle: distilled water + Tween-80): 3 of 6, 4 of 6, 5 of 6, 6 of 6 | survivor count (dose: 25.0 mg/kg/injection, schedule: Q01DX009 (ip), vehicle: distilled water + Tween-80): 0 of 6 (2×) | survivor count (dose: 50.0 mg/kg/injection, schedule: Q01DX009 (ip), vehicle: distilled water + Tween-80): 0 of 6 (2×) | survivor count (dose: 100.0 mg/kg/injection, schedule: Q01DX009 (ip), vehicle: distilled water + Tween-80): 0 of 6 (2×) | survivor count (dose: 200.0 mg/kg/injection, schedule: Q01DX009 (ip), vehicle: distilled water + Tween-80): 0 of 6 (2×)

COC(=O)c1nnn(-c2cccc(Cl)c2)c1N
survivor count [11]: 3 of 6

CC(=O)Oc1[nH]c(=O)c2cccc3c2c1CCC3
T/C [6]: 125 and 131 % of control

CN(C)CCSc1nc2ccccc2o1
survivor count (dose: 240.0 mg/kg/injection, schedule: Q01DX005 (ip), vehicle: saline): 0 of 6

CCCCCCCCCCCCCCCCNCC(O)CN (centres undefined)
survivor count [9]: 1 of 5

CCCCCNC(=O)CCC(NC(=O)c1ccc(N(C)Cc2cnc3nc(N)nc(N)c3n2)cc1)C(=O)O (centres undefined)
T/C (dose: 100.0 mg/kg/injection, schedule: Q01DX009 (ip), vehicle: sodium bicarbonate): 144 % of control

Nc1ccccc1S(=O)(=O)Nc1c(N)nc(SCC(=O)O)[nH]c1=O
T/C [15]: 130 % of control | survivor count [15]: 6 of 6

C#Cc1cccc(N=Cc2ccc(C=Nc3cccc(C#C)c3)cc2)c1
survivor count [5]: 6 of 6 | survivor count [10]: 6 of 6

O=C(Nc1ccc(Cl)cc1)Nc1ccc(Cl)nn1
survivor count (dose: 25.0 mg/kg/injection, schedule: Q04DX002 (ip), vehicle: Klucel (hydroxypropylcellulose) (HPC)): 5 of 6 | survivor count (dose: 200.0 mg/kg/injection, schedule: Q04DX002 (ip), vehicle: Klucel (hydroxypropylcellulose) (HPC)): 6 of 6 | survivor count (dose: 400.0 mg/kg/injection, schedule: Q04DX002 (ip), vehicle: Klucel (hydroxypropylcellulose) (HPC)): 6 of 6

Cc1[nH]c2ccc(N(C)C)cc2c(=O)c1CNCc1ccccc1
survivor count [8]: 2 of 6 | survivor count [9]: 0 of 6 | survivor count [5]: 1 of 6 | survivor count [10]: 0 of 6 | survivor count [6]: 0 of 6

C/C(=N\NC(=S)N1CCC1)c1ccccn1
survivor count [9]: 3 of 6

COC1C(C(=O)CS(=O)Cc2ccccc2)OC2OC(C)(C)OC21 (centres undefined)
survivor count (dose: 120.0 mg/kg/injection, schedule: Q01DX005 (ip), vehicle: saline): 5 of 6

CC1(C)COC(CC2CCCCC2)=N1
survivor count [6]: 3 of 6
